Test results as given in patent publication US20210403541A1.
No constants are given. Whether binding was seen depends on the method and setting. Binding seen in cells or lysates may run through a third protein. Some entries that bind do so weakly or less than the wild type.

Chains of the proteins cited; added tags and fusions are not shown. Lines headed by an entry give the natural chain unless they say otherwise; changes in a name come on top. A line that says so, or that is headed by a name, gives the form on record, which may keep a tag or linker.
Total Tau (P10636, form named): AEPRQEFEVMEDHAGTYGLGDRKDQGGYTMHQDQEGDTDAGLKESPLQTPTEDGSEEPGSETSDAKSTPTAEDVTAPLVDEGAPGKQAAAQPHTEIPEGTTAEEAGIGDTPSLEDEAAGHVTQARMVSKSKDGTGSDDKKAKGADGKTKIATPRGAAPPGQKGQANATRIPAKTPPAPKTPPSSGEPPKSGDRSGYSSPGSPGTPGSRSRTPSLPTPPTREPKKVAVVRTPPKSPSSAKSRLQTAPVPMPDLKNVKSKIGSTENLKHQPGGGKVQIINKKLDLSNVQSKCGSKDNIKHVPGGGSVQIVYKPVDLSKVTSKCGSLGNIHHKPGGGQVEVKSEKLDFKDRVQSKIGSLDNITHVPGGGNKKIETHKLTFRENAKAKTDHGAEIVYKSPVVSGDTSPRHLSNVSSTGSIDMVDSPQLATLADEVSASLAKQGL

Target: Total Tau (human) (UniProt P10636)
Assay: immuno-depletion of AD brain P2 extract with the antibody and protein G beads; total tau left over measured by AlphaLISA (Tau5 / HT7 pair), given as % pull-down

binding: binds
B1: V1-AFM-hIgG4-S228P (antibody, V domains shown)
VH: EVQLVESGGGLVQPGGSLRLSCAASGFTFSSFALNWVRQAPGKGLEWVGHIRSKTNNYVTFYAASVKGRFTVSRDDSQNTAYLQMNSLKTEDTATYYCVRRGPRDSWFGYWGQGTLVTVSS
VL: DIVMTQSPLSLPVTLGEPASISCRSSHNIVHRNANTYLEWYLQKPGQSPQLLIYTVSNRFSGVPDRFSGSGSGTDFTLKISRVEAEDLGVYYCFQGSYLPLTFGGGTKVEIK
